# Measurements from the supplement of paper PMC10849652.
# Amino acid sequences for entries named in this document (tags omitted). A change or cut given only in a name is not applied to a line headed by its entry.
# UniProt Q6ZSJ8: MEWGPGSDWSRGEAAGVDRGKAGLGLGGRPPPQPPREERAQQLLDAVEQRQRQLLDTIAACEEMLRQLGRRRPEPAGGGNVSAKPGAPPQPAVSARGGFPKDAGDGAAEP
# UniProt Q49AR2: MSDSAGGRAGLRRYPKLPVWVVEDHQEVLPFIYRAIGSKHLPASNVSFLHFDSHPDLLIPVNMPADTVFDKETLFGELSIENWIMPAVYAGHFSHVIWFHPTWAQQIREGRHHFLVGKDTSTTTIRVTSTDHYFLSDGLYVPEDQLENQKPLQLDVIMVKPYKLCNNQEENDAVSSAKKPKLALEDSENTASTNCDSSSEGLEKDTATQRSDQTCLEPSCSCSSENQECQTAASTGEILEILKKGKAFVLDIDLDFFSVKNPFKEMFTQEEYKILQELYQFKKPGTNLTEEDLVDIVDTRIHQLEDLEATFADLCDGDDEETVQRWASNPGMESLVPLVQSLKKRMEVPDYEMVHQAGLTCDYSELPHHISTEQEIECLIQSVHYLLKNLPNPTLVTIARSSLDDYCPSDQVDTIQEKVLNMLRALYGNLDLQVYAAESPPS
# UniProt Q9Y6E2: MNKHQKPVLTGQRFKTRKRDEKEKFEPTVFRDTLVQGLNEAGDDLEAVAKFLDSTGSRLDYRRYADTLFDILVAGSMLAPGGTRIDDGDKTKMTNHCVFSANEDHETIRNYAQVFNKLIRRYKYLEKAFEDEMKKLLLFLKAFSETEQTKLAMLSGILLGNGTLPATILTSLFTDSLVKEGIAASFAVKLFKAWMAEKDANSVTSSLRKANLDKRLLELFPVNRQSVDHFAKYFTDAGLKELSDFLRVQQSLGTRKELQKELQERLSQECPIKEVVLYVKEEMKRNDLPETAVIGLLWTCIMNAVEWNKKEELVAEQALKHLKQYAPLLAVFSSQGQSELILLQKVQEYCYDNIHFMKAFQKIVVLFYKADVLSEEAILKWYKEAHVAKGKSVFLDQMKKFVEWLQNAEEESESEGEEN
# UniProt Q8N1A6: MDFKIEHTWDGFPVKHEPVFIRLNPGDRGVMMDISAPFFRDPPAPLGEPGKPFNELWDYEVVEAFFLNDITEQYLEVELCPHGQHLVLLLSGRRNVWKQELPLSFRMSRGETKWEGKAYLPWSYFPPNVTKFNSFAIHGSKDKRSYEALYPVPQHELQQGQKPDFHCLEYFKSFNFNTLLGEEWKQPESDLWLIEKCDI
# UniProt P0DMB2: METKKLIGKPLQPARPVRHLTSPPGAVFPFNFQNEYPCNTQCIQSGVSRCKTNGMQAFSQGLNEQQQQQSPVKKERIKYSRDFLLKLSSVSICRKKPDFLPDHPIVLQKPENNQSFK
# UniProt Q13555: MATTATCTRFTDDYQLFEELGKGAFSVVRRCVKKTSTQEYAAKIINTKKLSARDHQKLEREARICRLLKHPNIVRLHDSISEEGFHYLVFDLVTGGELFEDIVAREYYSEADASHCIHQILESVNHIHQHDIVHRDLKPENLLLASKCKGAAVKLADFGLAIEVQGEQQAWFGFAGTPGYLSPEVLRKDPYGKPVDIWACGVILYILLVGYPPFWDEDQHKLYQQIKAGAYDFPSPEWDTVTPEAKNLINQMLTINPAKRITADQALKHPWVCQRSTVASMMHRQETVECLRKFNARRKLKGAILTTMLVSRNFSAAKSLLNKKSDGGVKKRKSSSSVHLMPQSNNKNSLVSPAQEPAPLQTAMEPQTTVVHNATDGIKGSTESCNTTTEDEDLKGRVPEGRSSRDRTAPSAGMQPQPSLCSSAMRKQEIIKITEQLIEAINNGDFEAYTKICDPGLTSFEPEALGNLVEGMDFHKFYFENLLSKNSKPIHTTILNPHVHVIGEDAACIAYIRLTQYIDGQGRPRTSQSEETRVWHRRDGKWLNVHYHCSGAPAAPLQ
# UniProt Q96F05: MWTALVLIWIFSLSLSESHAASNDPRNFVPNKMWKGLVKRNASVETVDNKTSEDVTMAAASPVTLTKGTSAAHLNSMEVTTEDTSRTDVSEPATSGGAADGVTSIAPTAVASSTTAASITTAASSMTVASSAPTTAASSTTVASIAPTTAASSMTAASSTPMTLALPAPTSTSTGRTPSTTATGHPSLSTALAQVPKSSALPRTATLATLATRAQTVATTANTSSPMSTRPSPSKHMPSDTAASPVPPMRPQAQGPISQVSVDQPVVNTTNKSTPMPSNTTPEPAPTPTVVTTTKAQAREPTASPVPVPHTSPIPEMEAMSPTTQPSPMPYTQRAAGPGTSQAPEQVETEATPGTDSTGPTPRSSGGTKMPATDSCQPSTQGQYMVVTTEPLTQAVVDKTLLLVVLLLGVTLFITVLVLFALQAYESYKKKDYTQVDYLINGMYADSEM
# UniProt P35219: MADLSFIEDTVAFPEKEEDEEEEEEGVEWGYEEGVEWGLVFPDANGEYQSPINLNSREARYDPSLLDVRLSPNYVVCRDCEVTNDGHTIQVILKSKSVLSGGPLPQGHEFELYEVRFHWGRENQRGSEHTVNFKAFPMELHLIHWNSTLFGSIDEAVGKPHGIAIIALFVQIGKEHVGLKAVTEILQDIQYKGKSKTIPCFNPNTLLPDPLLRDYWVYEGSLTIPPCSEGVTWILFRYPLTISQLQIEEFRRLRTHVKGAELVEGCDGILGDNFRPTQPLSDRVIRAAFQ
# UniProt Q5T5Y3: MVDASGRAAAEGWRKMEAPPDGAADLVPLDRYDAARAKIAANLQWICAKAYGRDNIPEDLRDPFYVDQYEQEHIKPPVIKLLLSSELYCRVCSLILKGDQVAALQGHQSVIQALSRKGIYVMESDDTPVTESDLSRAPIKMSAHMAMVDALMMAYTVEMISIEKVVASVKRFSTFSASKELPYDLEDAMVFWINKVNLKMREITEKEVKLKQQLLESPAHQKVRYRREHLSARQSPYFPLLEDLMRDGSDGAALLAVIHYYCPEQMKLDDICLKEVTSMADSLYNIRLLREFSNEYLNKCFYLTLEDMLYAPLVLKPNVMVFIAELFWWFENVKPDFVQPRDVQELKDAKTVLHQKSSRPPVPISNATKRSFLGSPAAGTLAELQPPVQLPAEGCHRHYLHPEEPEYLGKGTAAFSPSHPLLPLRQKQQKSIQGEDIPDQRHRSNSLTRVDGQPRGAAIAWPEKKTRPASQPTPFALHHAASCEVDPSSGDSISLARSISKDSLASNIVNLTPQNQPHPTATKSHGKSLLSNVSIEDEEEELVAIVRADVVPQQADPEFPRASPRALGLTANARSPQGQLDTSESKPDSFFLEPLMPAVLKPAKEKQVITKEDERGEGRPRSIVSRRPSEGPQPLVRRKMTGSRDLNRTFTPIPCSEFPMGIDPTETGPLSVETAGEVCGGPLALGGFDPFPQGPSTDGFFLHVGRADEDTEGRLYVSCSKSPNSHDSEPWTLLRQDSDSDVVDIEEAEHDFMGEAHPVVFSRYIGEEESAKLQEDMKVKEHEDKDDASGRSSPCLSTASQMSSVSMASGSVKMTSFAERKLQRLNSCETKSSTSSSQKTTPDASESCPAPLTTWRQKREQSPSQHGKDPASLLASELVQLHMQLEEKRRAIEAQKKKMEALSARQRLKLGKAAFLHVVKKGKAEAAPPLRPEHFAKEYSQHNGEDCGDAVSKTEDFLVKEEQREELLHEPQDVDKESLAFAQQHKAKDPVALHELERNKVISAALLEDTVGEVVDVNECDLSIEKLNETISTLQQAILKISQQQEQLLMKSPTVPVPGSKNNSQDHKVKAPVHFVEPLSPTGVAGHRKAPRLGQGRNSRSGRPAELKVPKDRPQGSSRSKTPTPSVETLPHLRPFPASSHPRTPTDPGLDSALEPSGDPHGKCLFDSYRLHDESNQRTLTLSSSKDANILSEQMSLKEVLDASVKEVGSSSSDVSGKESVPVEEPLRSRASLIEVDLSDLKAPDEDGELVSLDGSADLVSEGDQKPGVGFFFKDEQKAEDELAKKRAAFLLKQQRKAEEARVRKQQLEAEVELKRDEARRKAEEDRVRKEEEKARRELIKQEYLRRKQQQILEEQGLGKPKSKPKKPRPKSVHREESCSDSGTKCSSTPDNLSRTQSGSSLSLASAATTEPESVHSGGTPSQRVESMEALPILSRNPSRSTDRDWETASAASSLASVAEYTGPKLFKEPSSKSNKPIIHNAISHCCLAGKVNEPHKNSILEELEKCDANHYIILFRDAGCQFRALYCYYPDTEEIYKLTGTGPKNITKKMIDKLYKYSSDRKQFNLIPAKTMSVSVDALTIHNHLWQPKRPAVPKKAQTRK
# UniProt Q96LW7: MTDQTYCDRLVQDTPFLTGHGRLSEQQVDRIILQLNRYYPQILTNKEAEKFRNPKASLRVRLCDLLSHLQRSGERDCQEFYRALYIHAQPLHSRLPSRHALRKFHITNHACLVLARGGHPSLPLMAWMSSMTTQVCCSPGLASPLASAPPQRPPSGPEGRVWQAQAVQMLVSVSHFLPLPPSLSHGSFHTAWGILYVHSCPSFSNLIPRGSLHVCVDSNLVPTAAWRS
# UniProt Q9H8G2: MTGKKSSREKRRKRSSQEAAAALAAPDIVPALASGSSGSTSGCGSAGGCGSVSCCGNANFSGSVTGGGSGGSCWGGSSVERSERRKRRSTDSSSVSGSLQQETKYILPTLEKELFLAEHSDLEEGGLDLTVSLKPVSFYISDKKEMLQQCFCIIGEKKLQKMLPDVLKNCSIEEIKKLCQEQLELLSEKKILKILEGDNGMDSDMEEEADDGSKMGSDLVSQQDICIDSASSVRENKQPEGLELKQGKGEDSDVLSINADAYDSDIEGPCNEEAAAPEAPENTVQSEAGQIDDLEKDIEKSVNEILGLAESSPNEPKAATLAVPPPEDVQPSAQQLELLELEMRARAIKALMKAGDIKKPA
# UniProt P0C0L4: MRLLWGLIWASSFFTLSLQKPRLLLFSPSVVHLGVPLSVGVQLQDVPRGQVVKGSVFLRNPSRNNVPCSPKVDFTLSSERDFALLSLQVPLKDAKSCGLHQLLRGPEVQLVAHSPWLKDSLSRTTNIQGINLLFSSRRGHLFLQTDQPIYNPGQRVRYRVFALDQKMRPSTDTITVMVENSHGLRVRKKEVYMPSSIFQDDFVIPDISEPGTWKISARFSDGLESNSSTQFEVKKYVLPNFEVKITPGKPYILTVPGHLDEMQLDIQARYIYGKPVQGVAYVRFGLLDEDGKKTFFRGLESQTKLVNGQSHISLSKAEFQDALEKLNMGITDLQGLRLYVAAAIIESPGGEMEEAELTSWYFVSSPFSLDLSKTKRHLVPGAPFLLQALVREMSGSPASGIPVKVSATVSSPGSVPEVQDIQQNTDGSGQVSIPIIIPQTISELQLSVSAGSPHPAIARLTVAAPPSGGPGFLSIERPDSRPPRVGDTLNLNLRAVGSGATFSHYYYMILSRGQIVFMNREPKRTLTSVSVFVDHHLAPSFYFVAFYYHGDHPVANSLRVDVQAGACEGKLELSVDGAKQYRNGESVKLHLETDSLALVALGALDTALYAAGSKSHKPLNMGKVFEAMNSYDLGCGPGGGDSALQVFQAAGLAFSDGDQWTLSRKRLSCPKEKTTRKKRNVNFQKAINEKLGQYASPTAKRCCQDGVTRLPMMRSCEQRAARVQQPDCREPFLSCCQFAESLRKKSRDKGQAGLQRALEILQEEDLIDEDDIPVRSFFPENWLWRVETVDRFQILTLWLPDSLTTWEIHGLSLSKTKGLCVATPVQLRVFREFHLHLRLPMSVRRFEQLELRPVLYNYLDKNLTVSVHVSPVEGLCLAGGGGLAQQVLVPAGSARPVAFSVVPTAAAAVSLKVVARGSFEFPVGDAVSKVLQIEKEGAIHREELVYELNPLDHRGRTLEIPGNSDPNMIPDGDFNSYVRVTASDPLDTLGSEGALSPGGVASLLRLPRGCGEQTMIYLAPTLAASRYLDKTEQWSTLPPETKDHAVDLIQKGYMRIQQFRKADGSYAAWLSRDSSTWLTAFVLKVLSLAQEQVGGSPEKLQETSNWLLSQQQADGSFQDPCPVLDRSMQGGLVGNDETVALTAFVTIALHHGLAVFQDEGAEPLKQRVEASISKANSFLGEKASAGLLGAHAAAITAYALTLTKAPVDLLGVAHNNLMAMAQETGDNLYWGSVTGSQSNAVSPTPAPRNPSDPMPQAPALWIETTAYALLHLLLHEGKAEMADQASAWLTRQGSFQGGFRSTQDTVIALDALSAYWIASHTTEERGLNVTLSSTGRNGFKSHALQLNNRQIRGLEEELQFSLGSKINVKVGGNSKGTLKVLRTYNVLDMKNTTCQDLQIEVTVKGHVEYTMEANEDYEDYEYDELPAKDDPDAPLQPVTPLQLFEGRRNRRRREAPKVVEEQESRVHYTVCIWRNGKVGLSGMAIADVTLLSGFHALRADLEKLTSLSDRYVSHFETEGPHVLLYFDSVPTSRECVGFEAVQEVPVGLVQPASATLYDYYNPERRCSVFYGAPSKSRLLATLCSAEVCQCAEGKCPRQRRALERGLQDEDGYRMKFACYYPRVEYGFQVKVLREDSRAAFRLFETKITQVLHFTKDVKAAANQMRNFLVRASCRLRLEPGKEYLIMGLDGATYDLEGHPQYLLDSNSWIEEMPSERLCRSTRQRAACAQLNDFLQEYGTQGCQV
# The list shows a part of the results. Residues, ends and D or L forms follow the SMILES beside them. *: point of attachment. Cbz = O=C(OCc1ccccc1)*
# What was measured:
# Assay in all cases: log2 fold change, soluble protein after heating vs DMSO (PISA); higher = thermal stabilisation; K562 cells, 10 uM, 30 min; active = over 0.2 and 3.5 SD of the protein, either way, in both replicates (recomputed)
# IRAK-1-4 Inhibitor I = compound: C1COCCN1CCN2C3=CC=CC=C3N=C2NC(=O)C4=CC(=CC=C4)[N+](=O)[O-] [IRAK-1-4 Inhibitor I]
# Procedure, shortened: (§1)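 K562 cells at 2×10^6 cells/mL were given 10 μM compound for 30 min. Aliquots then went through 3 min of heating across 48°C-58°C, were pooled, and were extracted in PBS with 0.5% NP-40 at 4°C, and the supernatant after 21,000xg for 90 min was quantified by TMTpro 16plex LC-MS/MS with channel sums equalised. Thermal stability relative to control samples, from duplicates, is given as log2 fold change.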
# ibrutinib = compound: C=CC(=O)N1CCC[C@@H](n2nc(-c3ccc(Oc4ccccc4)cc3)c3c(N)ncnc32)C1 [ibrutinib]
# Procedure, shortened: as §1
# [1] = compound: CC(=O)c1cnc2ccc(-c3cc(Cl)c(O)c(Cl)c3)nc2c1N[C@H]1CC[C@H](CN(C)C)CC1
# Procedure, shortened: as §1
# ralimetinib = compound: CC(C)(C)Cn1c(N)nc2ccc(-c3[nH]c(C(C)(C)C)nc3-c3ccc(F)cc3)nc21 [ralimetinib]
# Procedure, shortened: as §1
# [2] = compound: CC(C)(O)CC(=O)NCCn1ccc2ncnc(Nc3ccc(Oc4cccc(C(F)(F)F)c4)c(Cl)c3)c21
# Procedure, shortened: as §1
# [3] = compound: CC(C)C1=C2N=C(C=C(N2N=C1)NCC3=CC=CC=C3)NCCCCCCN
# Procedure, shortened: as §1
# [4] = compound: CC(C)C[C@@H](C=O)NC(=O)[C@H](CC(C)C)NC(=O)[C@H](CC(C)C)NC(=O)OCc1ccccc1
# Procedure, shortened: as §1
# pinometostat = compound: CC(C)N(C[C@H]1O[C@@H](n2cnc3c(N)ncnc32)[C@H](O)[C@@H]1O)[C@H]1C[C@@H](CCc2nc3cc(C(C)(C)C)ccc3[nH]2)C1 [pinometostat]
# Procedure, shortened: as §1
# [5] = compound: CC1=C(C(CC(=O)N1)C2=CC=C(C=C2)C(F)(F)F)C(=O)NC3=C(C=C4C(=C3)C=NN4)F
# Procedure, shortened: as §1
# [6] = compound: CC1=C(C2=C(C=C1)C(=O)C3=CC=CC=C3N2CCCN)C
# Procedure, shortened: as §1
# [7] = compound: CC1=C(C=C(C=C1)NC(=O)C2=CC(=CC=C2)C(C)(C)C#N)NC3=CC4=C(C=C3)N=CN(C4=O)C
# Procedure, shortened: as §1
# [8] = compound: CC1=C(C=C(C=C1)NC(=O)C2=CC(=CC=C2)N(C)C)NC(=O)C3=CC=C(C=C3)O
# Procedure, shortened: as §1
# [9] = compound: CC1=CC=C(C=C1)SC2=C3C=C(SC3=CN=C2)C(=O)N
# Procedure, shortened: as §1
# [10] = compound: CC1=NC(=CC=C1)C2=C(N=C(N2)C(C)(C)C)C3=CC4=NC=CN=C4C=C3
# Procedure, shortened: as §1
# Nexturastat A = compound: CCCCN(Cc1ccc(C(=O)NO)cc1)C(=O)Nc1ccccc1 [Nexturastat A]
# Procedure, shortened: as §1
# vemurafenib = compound: CCCS(=O)(=O)Nc1ccc(F)c(C(=O)c2c[nH]c3ncc(-c4ccc(Cl)cc4)cc23)c1F [vemurafenib]
# Procedure, shortened: as §1
# [11] = compound: CCCS(=O)(=O)Nc1ccc(F)c(C(=O)c2c[nH]c3ncc(Cl)cc23)c1F
# Procedure, shortened: as §1
# [12] = compound: CCCc1cc(C)[nH]c(=O)c1CNC(=O)c1cc(-c2ccnc(N3CCN(C)CC3)c2)cc2c1cnn2C(C)C
# Procedure, shortened: as §1
# givinostat = compound: CCN(CC)Cc1ccc2cc(COC(=O)Nc3ccc(C(=O)NO)cc3)ccc2c1 [givinostat]
# Procedure, shortened: as §1
# barasertib = compound: CCN(CCCOc1ccc2c(Nc3cc(CC(=O)Nc4cccc(F)c4)[nH]n3)ncnc2c1)CCOP(=O)(O)O [barasertib]
# Procedure, shortened: as §1
Target,log2 fold change (IRAK-1-4 Inhibitor I),log2 fold change (ibrutinib),log2 fold change [1],log2 fold change (ralimetinib),log2 fold change [2],log2 fold change [3],log2 fold change [4],log2 fold change (pinometostat),log2 fold change [5],log2 fold change [6],log2 fold change [7],log2 fold change [8],log2 fold change [9],log2 fold change [10],log2 fold change (Nexturastat A),log2 fold change (vemurafenib),log2 fold change [11],log2 fold change [12],log2 fold change (givinostat),log2 fold change (barasertib)
BTF3 (UniProt P20290),inactive: 0.033,inactive: -0.014,inactive: 0.009,inactive: -0.052,inactive: 0.054,inactive: 0.051,inactive: -0.008,inactive: -0.055,inactive: 0.004,inactive: 0.001,inactive: -0.009,inactive: 0.013,inactive: -0.026,inactive: 0.025,inactive: -0.042,inactive: 0.001,inactive: -0.008,inactive: 0.006,inactive: -0.004,inactive: 0.022
C1orf122 (UniProt Q6ZSJ8),inactive: 0.023,inactive: 0.047,inactive: 0.016,inactive: 0.063,inactive: -0.07,inactive: 0.051,inactive: -0.103,inactive: -0.039,inactive: 0,inactive: 0.077,inactive: 0.035,inactive: -0.162,inactive: -0.053,inactive: -0.021,inactive: 0.057,inactive: 0.004,inactive: -0.06,inactive: -0.05,inactive: 0.089,inactive: 0.023
C5orf22 (UniProt Q49AR2),inactive: 0.05,inactive: -0.002,inactive: 0.022,inactive: 0.023,inactive: 0.003,inactive: 0.013,inactive: -0.014,inactive: 0.009,inactive: -0.031,inactive: -0.015,inactive: -0.018,inactive: -0.052,inactive: -0.006,inactive: 0.018,inactive: -0.026,inactive: -0.024,inactive: -0.007,inactive: 0.029,inactive: -0.085,inactive: 0.019
BZW2 (UniProt Q9Y6E2),inactive: 0.04,inactive: -0.043,inactive: 0,inactive: -0.016,inactive: -0.121,inactive: -0.163,inactive: -0.003,inactive: -0.011,–,inactive: 0.014,inactive: 0.009,inactive: -0.007,inactive: 0.043,inactive: 0.062,inactive: -0.034,inactive: 0.012,inactive: 0.058,inactive: -0.025,inactive: 0.011,inactive: 0.044
C4orf33 (UniProt Q8N1A6),inactive: 0.038,inactive: 0.137,inactive: -0.049,inactive: -0.073,inactive: 0.005,inactive: -0.076,inactive: 0.032,inactive: 0,–,inactive: -0.03,inactive: -0.101,inactive: 0.04,inactive: 0.049,inactive: -0.049,inactive: 0.018,inactive: -0.01,inactive: -0.082,inactive: 0.07,inactive: 0.055,inactive: 0.03
C8orf88 (UniProt P0DMB2),inactive: 0.051,inactive: -0.063,inactive: -0.567,inactive: 0.189,inactive: -0.031,inactive: 0.026,inactive: -0.178,inactive: 0.116,–,–,–,inactive: 0.034,inactive: -0.169,inactive: -0.075,inactive: -0.08,inactive: -0.182,inactive: -0.323,inactive: -1.36,inactive: 0.018,inactive: 0.032
CAMK2G isoform 6 (UniProt Q13555),inactive: -0.008,inactive: 0.004,inactive: 0.181,inactive: 0.118,inactive: 0.039,inactive: -0.016,inactive: 0.038,inactive: 0.067,–,inactive: 0.063,inactive: 0.048,inactive: -0.055,inactive: 0.131,inactive: -0.011,inactive: 0.094,inactive: -0.026,inactive: 0.11,inactive: 0.15,inactive: 0.025,inactive: 0.065
C11orf24 (UniProt Q96F05),inactive: 0.164,inactive: -0.061,inactive: -0.304,inactive: 0.118,inactive: 0.194,inactive: 0.324,inactive: 0.026,inactive: 0.148,–,–,inactive: 0.024,inactive: 0.011,–,inactive: -0.185,inactive: -0.059,–,–,–,inactive: -0.339,inactive: -0.004
CALCOCO2 isoform 4 (UniProt Q13137),inactive: 0.004,inactive: -0.016,inactive: -0.09,inactive: 0.045,inactive: -0.005,active: -0.599,inactive: 0.115,inactive: 0.054,–,inactive: -0.065,inactive: -0.005,inactive: -0.008,inactive: 0.006,inactive: 0.012,inactive: 0.019,inactive: 0.012,inactive: -0.037,inactive: -0.052,inactive: 0,inactive: 0.022
CA8 (UniProt P35219),inactive: 0.027,inactive: 0.004,inactive: -0.091,inactive: 0.033,inactive: -0.036,inactive: -0.056,inactive: 0.011,inactive: -0.008,–,inactive: -0.046,inactive: -0.024,inactive: -0.081,inactive: 0.041,inactive: 0.006,inactive: -0.058,inactive: 0.004,inactive: 0.02,inactive: -0.002,inactive: 0.077,inactive: 0.034
CAMSAP1 isoform 3 (UniProt Q5T5Y3),inactive: -0.076,inactive: -0.069,inactive: -0.29,inactive: -0.031,inactive: -0.062,inactive: -0.078,inactive: 0.031,inactive: 0.121,–,inactive: 0.108,inactive: 0.03,inactive: -0.009,inactive: -0.02,inactive: -0.101,inactive: 0.168,inactive: -0.274,inactive: 0.042,inactive: -0.19,inactive: 0.151,inactive: 0.077
CARD19 isoform 2 (UniProt Q96LW7),inactive: 0.01,inactive: -0.002,inactive: -0.02,inactive: -0.049,inactive: -0.181,–,inactive: 0.128,inactive: 0.063,–,inactive: 0.106,–,inactive: -0.064,–,inactive: -0.036,inactive: 0.04,inactive: -0.036,–,inactive: -0.012,–,inactive: -0.277
C16orf58 (UniProt Q96GQ5),inactive: 0.031,inactive: -0.022,inactive: 0.01,inactive: -0.017,inactive: -0.045,inactive: -0.199,inactive: 0.001,inactive: 0.005,–,inactive: 0.045,inactive: -0.04,inactive: 0.001,inactive: 0.021,inactive: 0.003,inactive: -0.049,inactive: -0.007,inactive: 0.005,inactive: -0.075,inactive: -0.012,inactive: -0.011
C19orf53 (UniProt Q9UNZ5),inactive: -0.136,inactive: 0.031,inactive: 0.12,inactive: 0.201,inactive: 0.043,inactive: 0.013,inactive: 0.126,inactive: 0.32,–,inactive: -0.546,inactive: 0.056,inactive: 0.016,inactive: -0.065,inactive: -0.196,inactive: 0.184,inactive: -0.189,inactive: -0.044,inactive: 0.146,inactive: 0.021,inactive: -0.096
CAAP1 (UniProt Q9H8G2),inactive: 0.073,inactive: -0.127,inactive: 0.044,inactive: 0.144,inactive: 0.265,inactive: 0.099,inactive: 0.108,inactive: 0.047,inactive: -0.021,inactive: -0.06,inactive: -0.066,inactive: 0.165,inactive: -0.022,inactive: -0.268,inactive: 0.244,inactive: 0.067,inactive: -0.054,–,inactive: -0.019,inactive: 0.046
C4A (UniProt P0C0L4),inactive: 0.017,inactive: 0.08,inactive: -0.01,inactive: -0.083,inactive: 0.226,inactive: 0.111,inactive: 0.01,inactive: -0.11,–,inactive: -0.192,inactive: -0.154,inactive: 0.19,inactive: 0.111,inactive: 0.215,inactive: -0.008,inactive: 0.148,inactive: -0.02,inactive: -0.287,inactive: 0.001,inactive: 0.021
BTAF1 (UniProt O14981),inactive: 0.021,inactive: 0.029,inactive: 0.022,inactive: -0.043,inactive: -0.168,inactive: -0.131,inactive: 0.01,inactive: -0.011,–,inactive: -0.087,inactive: -0.033,inactive: 0.07,inactive: -0.035,inactive: 0.011,inactive: -0.064,inactive: -0.003,inactive: 0.041,inactive: -0.018,inactive: 0.009,inactive: 0.038

# Quoted at random: 2 entries already listed, in no set order.
Target,log2 fold change (IRAK-1-4 Inhibitor I),log2 fold change (ibrutinib),log2 fold change [1],log2 fold change (ralimetinib),log2 fold change [2],log2 fold change [3],log2 fold change [4],log2 fold change (pinometostat),log2 fold change [5],log2 fold change [6],log2 fold change [7],log2 fold change [8],log2 fold change [9],log2 fold change [10],log2 fold change (Nexturastat A),log2 fold change (vemurafenib),log2 fold change [11],log2 fold change [12],log2 fold change (givinostat),log2 fold change (barasertib)
CARD19 isoform 2 (UniProt Q96LW7),inactive: 0.01,inactive: -0.002,inactive: -0.02,inactive: -0.049,inactive: -0.181,–,inactive: 0.128,inactive: 0.063,–,inactive: 0.106,–,inactive: -0.064,–,inactive: -0.036,inactive: 0.04,inactive: -0.036,–,inactive: -0.012,–,inactive: -0.277
BTF3 (UniProt P20290),inactive: 0.033,inactive: -0.014,inactive: 0.009,inactive: -0.052,inactive: 0.054,inactive: 0.051,inactive: -0.008,inactive: -0.055,inactive: 0.004,inactive: 0.001,inactive: -0.009,inactive: 0.013,inactive: -0.026,inactive: 0.025,inactive: -0.042,inactive: 0.001,inactive: -0.008,inactive: 0.006,inactive: -0.004,inactive: 0.022
